In patent publication US20090092595A1, “Suppression of sPLA2-integrin binding for treating an inflammatory condition” (REGENTS OF THE UNIVERSITY OF CALIFORNIA, priority 2007, published 2009) one finds binding data, which are given here for 4 molecules.

The assay has as its target recombinant soluble integrin αvβ3. In words: ELISA-type assay, soluble αvβ3 on immobilized mutant sPLA2-IIA. (In general: ELISA stands for enzyme-linked immunosorbent assay.)

Substitutions are numbered along the chain they refer to. In names and notes the source's numbering stands. Results are given in words; binding and its absence hold for the method and conditions named. A result given as binding can be weak or reduced; the word gives no strength.

B1: sPLA2-IIA R74E mutant (enzyme, human, UniProt P14555 21-144, looked up, not shown: small tags and cut ends)
chain: NLVNFHRMIKLTTGKEAALSYGFYGCHCGVGGRGSPKDATDRCCVTHDCCYKRLEKRGCGTKFLSYKFSNSGSEITCAKQDSCRSQLCECDKAAATCFARNKTTYNKKYQYYSNKHCRGSTPRC
Take B1: the binding entry is “binds”.

B2: sPLA2-IIA R42E mutant (enzyme, human, UniProt P14555 21-144, looked up, not shown: small tags and cut ends)
chain: B1 chain with R42E, E74R
Turning to B2, the binding entry is recorded as “binds”.

B3: sPLA2-IIA R100E mutant (enzyme, human, UniProt P14555 21-144, looked up, not shown: small tags and cut ends)
chain: B1 chain with E74R, R100E
Turning to B3, the binding result is “binds”.

B4: sPLA2-IIA R74E/R100E mutant (integrin-binding-defective) (enzyme, human, UniProt P14555 21-144, looked up)
chain: B1 chain with R100E
notes: mature; the printed positions appear to count on the mature protein; not shown: N-terminal vector-encoded residues with His tag from the PET28a/amp vector
Consider B4, for which the binding entry is given as “binds”.
